Assay results published in the supplement of paper PMC6411743.
± gives the standard deviation of the averaged measurements. This is a selection; strong and weak results do not stand in their true shares.

Experiments:
Experiment in all cases: NP40-soluble protein abundance relative to vehicle (solubility fold change) (ratio); higher = more soluble protein in presence of AMP-PNP
[1] = molecular target: T1, UniProt O75330 and related entries
T1 sequence (whole entry): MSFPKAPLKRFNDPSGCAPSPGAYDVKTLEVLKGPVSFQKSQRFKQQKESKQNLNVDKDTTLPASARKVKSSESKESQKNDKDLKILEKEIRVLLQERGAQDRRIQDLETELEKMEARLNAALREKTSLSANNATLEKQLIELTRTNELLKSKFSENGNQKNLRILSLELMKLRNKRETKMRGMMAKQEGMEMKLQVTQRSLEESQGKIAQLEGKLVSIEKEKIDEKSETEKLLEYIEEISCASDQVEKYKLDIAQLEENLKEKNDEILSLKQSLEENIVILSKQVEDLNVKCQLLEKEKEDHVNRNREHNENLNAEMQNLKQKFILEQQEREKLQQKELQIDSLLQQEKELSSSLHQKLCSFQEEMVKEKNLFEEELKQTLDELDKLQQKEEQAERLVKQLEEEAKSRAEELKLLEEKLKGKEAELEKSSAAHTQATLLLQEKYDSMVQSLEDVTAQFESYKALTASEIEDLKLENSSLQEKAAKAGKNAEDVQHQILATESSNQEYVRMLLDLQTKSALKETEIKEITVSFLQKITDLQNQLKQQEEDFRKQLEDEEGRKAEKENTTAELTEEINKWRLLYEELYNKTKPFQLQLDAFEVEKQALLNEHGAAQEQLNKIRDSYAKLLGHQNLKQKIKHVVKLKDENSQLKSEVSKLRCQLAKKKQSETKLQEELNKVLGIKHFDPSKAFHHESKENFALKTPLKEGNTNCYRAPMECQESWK
In short: (§1)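 Data come from three independent experiments in which Dounce-homogenised Jurkat crude lysate was treated at eight concentrations from 0.1 to 10 mM. Treatment ran 10 min at room temperature and then 3 min at 37 °C, after which 0.8% NP40 and benzonase were added for 60 min at 4 °C before ultracentrifugation. The supernatant underwent TMT labelling and LC-MS/MS, and vsn-normalised intensities were expressed as fold change against the detergent-processed vehicle in each replicate.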

UniProt O75934 = molecular target: T2, UniProt O75934
T2 sequence (whole entry): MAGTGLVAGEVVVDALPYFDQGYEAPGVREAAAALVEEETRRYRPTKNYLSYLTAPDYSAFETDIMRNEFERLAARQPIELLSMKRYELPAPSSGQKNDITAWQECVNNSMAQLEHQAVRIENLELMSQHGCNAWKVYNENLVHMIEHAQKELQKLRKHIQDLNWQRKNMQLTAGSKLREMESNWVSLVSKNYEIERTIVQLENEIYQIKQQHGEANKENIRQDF
In short: as §1

[2] = molecular target: T3, UniProt O94864 and related entries
T3 sequence (whole entry): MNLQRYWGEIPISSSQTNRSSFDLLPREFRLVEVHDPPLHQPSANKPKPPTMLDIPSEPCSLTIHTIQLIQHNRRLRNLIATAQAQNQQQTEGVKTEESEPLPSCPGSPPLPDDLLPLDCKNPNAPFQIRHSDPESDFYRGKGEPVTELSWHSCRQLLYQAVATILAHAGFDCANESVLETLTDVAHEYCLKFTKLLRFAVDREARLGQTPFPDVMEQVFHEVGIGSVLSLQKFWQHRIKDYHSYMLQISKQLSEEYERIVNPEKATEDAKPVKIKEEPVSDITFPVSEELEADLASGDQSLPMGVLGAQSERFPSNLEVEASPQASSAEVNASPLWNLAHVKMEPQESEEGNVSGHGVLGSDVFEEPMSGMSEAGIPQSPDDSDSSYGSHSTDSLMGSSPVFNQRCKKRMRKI
In short: as §1

[3] = molecular target: T4, UniProt O95294 and related entries
T4 sequence (whole entry): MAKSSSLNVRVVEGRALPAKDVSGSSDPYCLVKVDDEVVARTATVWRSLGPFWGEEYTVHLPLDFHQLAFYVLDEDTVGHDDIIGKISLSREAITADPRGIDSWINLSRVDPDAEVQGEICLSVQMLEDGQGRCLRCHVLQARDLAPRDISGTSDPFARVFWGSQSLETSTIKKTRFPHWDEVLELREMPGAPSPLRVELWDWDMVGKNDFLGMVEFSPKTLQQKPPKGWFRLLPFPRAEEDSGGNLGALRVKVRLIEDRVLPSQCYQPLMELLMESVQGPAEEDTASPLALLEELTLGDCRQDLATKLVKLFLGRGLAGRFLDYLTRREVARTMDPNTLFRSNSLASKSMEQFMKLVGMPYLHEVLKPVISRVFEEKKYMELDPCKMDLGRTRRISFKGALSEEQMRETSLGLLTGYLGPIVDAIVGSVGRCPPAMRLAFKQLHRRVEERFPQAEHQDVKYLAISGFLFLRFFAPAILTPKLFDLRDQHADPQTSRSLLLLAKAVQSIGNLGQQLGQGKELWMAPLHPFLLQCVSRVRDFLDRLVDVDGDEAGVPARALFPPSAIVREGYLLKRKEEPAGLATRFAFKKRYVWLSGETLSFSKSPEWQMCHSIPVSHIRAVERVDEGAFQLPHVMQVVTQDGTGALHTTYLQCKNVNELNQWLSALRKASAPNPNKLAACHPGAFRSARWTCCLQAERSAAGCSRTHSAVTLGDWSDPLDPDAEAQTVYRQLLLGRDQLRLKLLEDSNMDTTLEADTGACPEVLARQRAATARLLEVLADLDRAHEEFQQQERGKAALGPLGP
In short: as §1

[4] = molecular target: T5, UniProt O95379-3|O95379-4
T5 sequence (whole entry): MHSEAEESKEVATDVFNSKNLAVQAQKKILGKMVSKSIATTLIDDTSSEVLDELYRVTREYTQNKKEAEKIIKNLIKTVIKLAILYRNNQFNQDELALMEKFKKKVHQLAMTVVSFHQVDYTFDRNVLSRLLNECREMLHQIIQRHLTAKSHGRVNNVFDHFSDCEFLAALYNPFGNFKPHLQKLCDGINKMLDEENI
In short: as §1

## Nc1ncnc2c1ncn2[C@@H]1O[C@H](COP(=O)(O)OP(=O)(O)NP(=O)(O)O)[C@@H](O)[C@H]1O [adenylyl imidodiphosphate]
[1]; concentration: 1mM
  NP40-soluble protein abundance: 1.02 ± 0.019
[1]; concentration: 2mM
  NP40-soluble protein abundance: 1.06 ± 0.06
[1]; concentration: 4mM
  NP40-soluble protein abundance: 1.03 ± 0.032
[1]; concentration: 6mM
  NP40-soluble protein abundance: 0.983 ± 0.017
[1]; concentration: 8mM
  NP40-soluble protein abundance: 0.991 ± 0.019
[1]; concentration: 10mM
  NP40-soluble protein abundance: 0.996 ± 0.035
UniProt O75934; concentration: 1mM
  NP40-soluble protein abundance: 1.03 ± 0.012
UniProt O75934; concentration: 2mM
  NP40-soluble protein abundance: 1.08 ± 0.036
UniProt O75934; concentration: 4mM
  NP40-soluble protein abundance: 1.04 ± 0.042
UniProt O75934; concentration: 6mM
  NP40-soluble protein abundance: 1.03 ± 0.033
UniProt O75934; concentration: 8mM
  NP40-soluble protein abundance: 1.06 ± 0.025
UniProt O75934; concentration: 10mM
  NP40-soluble protein abundance: 1.07 ± 0.044
[2]; concentration: 1mM
  NP40-soluble protein abundance: 1.01 ± 0.018
[2]; concentration: 2mM
  NP40-soluble protein abundance: 1.04 ± 0.078
[2]; concentration: 4mM
  NP40-soluble protein abundance: 0.984 ± 0.046
[2]; concentration: 6mM
  NP40-soluble protein abundance: 0.961 ± 0.013
[2]; concentration: 8mM
  NP40-soluble protein abundance: 0.9073 ± 0.0015
[2]; concentration: 10mM
  NP40-soluble protein abundance: 0.946 ± 0.028
[3]; concentration: 1mM
  NP40-soluble protein abundance: 0.993 ± 0.012
[3]; concentration: 2mM
  NP40-soluble protein abundance: 0.968 ± 0.016
[3]; concentration: 4mM
  NP40-soluble protein abundance: 0.981 ± 0.026
[3]; concentration: 6mM
  NP40-soluble protein abundance: 0.9983 ± 0.0097
[3]; concentration: 8mM
  NP40-soluble protein abundance: 0.987 ± 0.031
[3]; concentration: 10mM
  NP40-soluble protein abundance: 0.9558 ± 0.0046
[4]; concentration: 1mM
  NP40-soluble protein abundance: 1.02 ± 0.024
[4]; concentration: 2mM
  NP40-soluble protein abundance: 1.04 ± 0.1
[4]; concentration: 4mM
  NP40-soluble protein abundance: 0.994 ± 0.041
